Among the data in article PMC7819943, “Rice protein-binding microarrays: a tool to detect cis-acting elements near promoter regions in rice” are binding signal values, retold here.

Sequences of proteins named here, by UniProt entry; tags and fusion partners are left off.
UniProt Q0JBA9, entry or part of it: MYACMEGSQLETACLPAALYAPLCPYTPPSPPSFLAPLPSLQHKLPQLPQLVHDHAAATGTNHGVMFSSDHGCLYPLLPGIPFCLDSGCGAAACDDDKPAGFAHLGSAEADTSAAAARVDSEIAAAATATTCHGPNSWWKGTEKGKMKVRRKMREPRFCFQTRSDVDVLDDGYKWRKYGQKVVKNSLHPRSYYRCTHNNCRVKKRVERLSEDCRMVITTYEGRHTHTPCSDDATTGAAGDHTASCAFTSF

This is one part of the list.

This test deals with OsWRKY34 (Oryza sativa, UniProt Q0JBA9 1-250). Briefly: protein-binding microarray (RPBM); PBS, 2% BSA, 51.3 ng/ul salmon testes DNA, 50 uM zinc acetate, 200 nM TF, 25 C, 1 h; high values mean tight binding. The settings on record: protein: recombinant; tags: N-terminal polyhistidine and DsRed monomer fusion (pET32a); label: CyDye5-dUTP incorporated in the synthesized complementary strand; 3' TTTTT single-stranded linker to array surface; dsDNA, one strand shown. A digest of the protocol:
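For the binding signal, per-feature fluorescence intensity was read in arbitrary units on an Axon 4000B scanner. Before scanning, a 2% BSA-blocked custom Agilent array made double-stranded with Cy5-dUTP was washed after 1 h at 25 °C with 200 nM protein and 50 µM zinc acetate. The proteins were Ni–NTA-purified transcription factors with N-terminal polyhistidine and DsRed fusions, expressed in E. coli BL21-CodonPlus.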
“CATGTATTGGTCATTGTTAGCTATTACACAGGCATTTATTCGGAGTCACCTAGTGCAG”: the binding signal was 8500 fluorescence intensity (a.u.).

With “TTCGCTGTAGATTTGGTTTTGTTTTATTTGTGTTTTGCTTCGGAGTCACCTAGTGCAG”, the binding signal was 10400 fluorescence intensity (a.u.).

In the case of “ATATTCTTTCCAATTTTTTACCCTCATGCAACCATATTTCCGGAGTCACCTAGTGCAG”, the binding signal is 10700 fluorescence intensity (a.u.).

For “GCAGACCACTGTACTTGGCCCGCGAGTGTCCGATGACATCCGGAGTCACCTAGTGCAG”, the binding signal is 8080 fluorescence intensity (a.u.).

Consider “GATCGCAGGCCATCAGCTTCCTTATCCGGCTAACTGACGACGGAGTCACCTAGTGCAG”, for which the binding signal was 10900 fluorescence intensity (a.u.).

As for “ATACAATATGCATGTTACACATTAGTAGTTTCGTAAAGTTCGGAGTCACCTAGTGCAG”, the binding signal was 9040 fluorescence intensity (a.u.).

As to “GCTCTTTGGCCTGCTTCAGCCTTCAGCTTCTCCATGGTTTCGGAGTCACCTAGTGCAG”, the binding signal was 10700 fluorescence intensity (a.u.).

Consider “GTCGGCGCGACCGCGGTCAAACGGCATTTTGGACCGGCGACGGAGTCACCTAGTGCAG”, for which the binding signal is 10100 fluorescence intensity (a.u.).

As to “TGGCTATTGTCTTTCACTTTTTCGTCCGTTGGATTTTGCACGGAGTCACCTAGTGCAG”, the binding signal was 9200 fluorescence intensity (a.u.).

For the sequence “GCTAAGATTGATATCCTGTTTGGTCAAATGCACGCTCTTTCGGAGTCACCTAGTGCAG”, the binding signal is 9360 fluorescence intensity (a.u.).

For “AGTGCACTCAGTCCCTTCCCCTACTTCCTCTTTTTTTTTTCGGAGTCACCTAGTGCAG”, the binding signal is 8310 fluorescence intensity (a.u.).

Consider “CAGTGATCATTTCATCTACACACATATTCCGGTTTAACAACGGAGTCACCTAGTGCAG”, for which the binding signal was 8430 fluorescence intensity (a.u.).

“GCTATGTATTGTGCAGTAATGTTAGGTTGTTTATGAGTTTCGGAGTCACCTAGTGCAG”: the binding signal was 9930 fluorescence intensity (a.u.).

As for “GCCCATCTTCTCCTAATTTCTGTGAGTAATCCATTCATAACGGAGTCACCTAGTGCAG”, the binding signal was 8670 fluorescence intensity (a.u.).

For “AGTTTGGTCAAGTTTTTTCAGTTCTTTTTTTTCTATTAATCGGAGTCACCTAGTGCAG”, the binding signal is 12800 fluorescence intensity (a.u.).

For the sequence “CTCTTAGCAATGCTGACTGGTCCGATCAAAGTCAACGGTTCGGAGTCACCTAGTGCAG”, the binding signal was 8730 fluorescence intensity (a.u.).

As to “ATGGCACTAGCTGCCGTGGAGAATCTCTATGCATTGTTTCCGGAGTCACCTAGTGCAG”, the binding signal was 8160 fluorescence intensity (a.u.).

On to “CCTTACTATGTGTGTCATCCAACATCTCTATGATAAATTTCGGAGTCACCTAGTGCAG”, for which the binding signal was 8590 fluorescence intensity (a.u.).

Turning to “TTGGTTGGTTGGTTGATTGCTCGCGCCCCGCGCGGTTGCGCGGAGTCACCTAGTGCAG”, the binding signal is 12200 fluorescence intensity (a.u.).

Take “CCATCGCCGCTCTGCCTGCATCCTGCGCTACTCTGCCCACCGGAGTCACCTAGTGCAG”: the binding signal is 9770 fluorescence intensity (a.u.).

Turning to “ACTTTACTATCAAGCTGTACTCGGATATTTTTTTTTCTTTCGGAGTCACCTAGTGCAG”, the binding signal is 8910 fluorescence intensity (a.u.).

“ACTTTTGTCTGGATTAGAAACGTGAGTAATATATGCATATCGGAGTCACCTAGTGCAG”: the binding signal was 9260 fluorescence intensity (a.u.).

For the sequence “TCCATCCCCACCCTGCTCGACTCCCGCTTCGATGCCGACACGGAGTCACCTAGTGCAG”, the binding signal was 10300 fluorescence intensity (a.u.).

In the case of “GCCATATCTTCTTTCTTCTTTCTCTGTCTTCTATTCCAGCCGGAGTCACCTAGTGCAG”, the binding signal is 14800 fluorescence intensity (a.u.).

For “GGGTGGGAGTCAGCTCAGCCTCAACTCACTTCCGCTAATTCGGAGTCACCTAGTGCAG”, the binding signal was 10300 fluorescence intensity (a.u.).

As to “GCTCAAATCCGTTGGTCCCTGTAAAGCGTTGTACAAATGTCGGAGTCACCTAGTGCAG”, the binding signal is 9830 fluorescence intensity (a.u.).

With “ATGGTGATGTTATTCCAATCATGATATATGTTGACCTTTACGGAGTCACCTAGTGCAG”, the binding signal is 10300 fluorescence intensity (a.u.).

Take “AAAAAATAGTCTACTCCTTCCACACCTCTCTCTTGCATGTCGGAGTCACCTAGTGCAG”: the binding signal was 8760 fluorescence intensity (a.u.).

Turning to “CACGACCTTAAGCCTCATAATTTGGACAATCACAGCAACTCGGAGTCACCTAGTGCAG”, the binding signal was 9170 fluorescence intensity (a.u.).

“CGGAATCCTCATTCGCTTCGCCTCGCTTCTCTTCTCCGAGCGGAGTCACCTAGTGCAG”: the binding signal was 8020 fluorescence intensity (a.u.).

On to “ATATTTGCCGATCTCTTGCCGCCGACCCCGCCGCAATAACCGGAGTCACCTAGTGCAG”, for which the binding signal was 10400 fluorescence intensity (a.u.).

As to “TTTTGATTGATTTGTCGCCGGCGACGCGCCGCCCGCCATGCGGAGTCACCTAGTGCAG”, the binding signal was 11100 fluorescence intensity (a.u.).

As for “CTTTCATGAATATAATTGGTGTTTCTTTCCTACGTACTTCCGGAGTCACCTAGTGCAG”, the binding signal is 9400 fluorescence intensity (a.u.).

Consider “CTTTTTTCCCGTGTTGGCCGTCTTCTTTTTATCGTCTAGTCGGAGTCACCTAGTGCAG”, for which the binding signal was 14100 fluorescence intensity (a.u.).

As for “TGCTCCAATCTTCTCGGTTCTTGAGGGGTTTTAAAGAGGACGGAGTCACCTAGTGCAG”, the binding signal was 9040 fluorescence intensity (a.u.).

For the sequence “TCTGATTCTTGCTTCGTGTGCTTCGCCGTCGCCGCCGCCGCGGAGTCACCTAGTGCAG”, the binding signal was 8280 fluorescence intensity (a.u.).

Consider “GGTGAGAGCCTGAGTTTGTTTGTTTCTTTTTCCGCGCGCACGGAGTCACCTAGTGCAG”, for which the binding signal is 12000 fluorescence intensity (a.u.).

With “GCTCTGGAAAGCTTCAGTTTGGCTTCTTTGATATCTTGTTCGGAGTCACCTAGTGCAG”, the binding signal is 11200 fluorescence intensity (a.u.).

With “TTGGATCGTTTGCTTTTCTTTGCCTTTCTTTTGGATTTCTCGGAGTCACCTAGTGCAG”, the binding signal is 11700 fluorescence intensity (a.u.).

Take “TTCTCTCTTTCTTGTCTAATTTGGTCTGGTCACAGTTTATCGGAGTCACCTAGTGCAG”: the binding signal is 11600 fluorescence intensity (a.u.).

In the case of “TAAGACAAACGGTCAAATATTTACTAAAAAGTCAACGGTGCGGAGTCACCTAGTGCAG”, the binding signal was 8870 fluorescence intensity (a.u.).

Take “CCCCTCAGATTACAGTCGGCCGGTGCCGCTACCGCCGCGGCGGAGTCACCTAGTGCAG”: the binding signal is 8970 fluorescence intensity (a.u.).
